The supplement of paper PMC11348887
Structures can show the parent of a compound that is named as a salt. This is one part of the list. Most values lie at the level of the controls, where differences are scatter. *1 amine or outer side, *2 acyl side, *3 side chain or, on linkers, in order; H or OH if unused. Where a SMILES comes first, the peptide text is derived from it. Bridges are numbered along the chain shown (N, C = ends). [ ]: non-standard residue; d: D form. The star is where a group is joined. pTerphenylCO(4''-OnC5H11) = CCCCCOc1ccc(-c2ccc(-c3ccc(C(=O)*)cc3)cc2)cc1; Orn(4R-OH,5R-OH) = O=C([C@H](C[C@@H](O)[C@@H](O)N[*:3])N[*:1])[*:2]; hTyr(3S-OH,4S-OH) = N[C@H](C(=O)O)[C@H](O)[C@@H](O)c1ccc(O)cc1; Pro(3S-OH,4S-Me) = C[C@H]1CN[C@H](C(=O)O)[C@H]1O; Hyp = O=C(O)[C@@H]1C[C@@H](O)CN1

System: hPSC-derived cortical neurons (WA09)
Assay: total neurite length per nucleus (MAP2) z-score; higher = more neurite growth
Settings: 5 µM; treatment: days 7-14 after plating, readout day 21

SMILES	total neurite length per nucleus (z-score)
CCC[C@H](NC(=O)/C(C#N)=C/c1cccc(Br)n1)c1ccccc1 [Degrasyn (WP1130)]	-0.873
CCC[S+]([O-])c1ccc2[nH]c(NC(=O)OC)nc2c1 (configuration not stated) [Albendazole Oxide]	-0.659
COc1ccc(-c2ccc3cc(C(=O)O)ccc3c2)cc1C12CC3CC(CC(C3)C1)C2 [Adapalene]	0.0417
Cc1ccc(C(=O)N(CCCN)[C@@H](c2oc3cc(Cl)ccc3c(=O)c2Cc2ccccc2)C(C)C)cc1	-6.62
COc1cc(C=O)ccc1O [Vanillin]	-1.06
Oc1cc2c(cc1O)[C@@H]1c3ccc(O)c(O)c3OC[C@]1(O)C2 [Hematoxylin]	0.488
CC(C)/N=c1\cc2n(-c3ccc(Cl)cc3)c3ccccc3nc-2cc1Nc1ccc(Cl)cc1 [Clofazimine]	-0.417

System: hPSC-derived cortical neurons (WA09)
Assay: nucleus roundness z-score vs screen plate; higher = rounder nuclei (more mature)
Settings: 5 µM; treatment: days 7-14 after plating, readout day 21

SMILES	nucleus roundness z-score
COc1cc2nc(N(C)CCCNC(=O)C3CCCO3)nc(N)c2cc1OC (configuration not stated) [Alfuzosin HCl]	-1.24
CC[C@H](C)n1cc(C)c2c(C(=O)NCc3c(C)cc(C)[nH]c3=O)cc(-c3ccc(N4CCNCC4)nc3)cc21	0.806
OC[C@H]1O[C@@H](Oc2ccc(O)cc2)[C@H](O)[C@@H](O)[C@@H]1O [Arbutin]	0.249
NC(=O)[C@@H](CCC(F)(F)F)N(Cc1ccc(-c2ncon2)cc1F)S(=O)(=O)c1ccc(Cl)cc1	0.0127
O=C(O)CCNC(=O)c1ccccc1 [Betamipron]	-0.637
CN(C)Cc1c(C(=O)NCCOc2ccc(C(=O)NO)cc2)oc2ccccc12	-3.1
OCCn1cc(-c2ccc3c(c2)CC/C3=N\O)c(-c2ccncc2)n1	-1.55
OCc1c[nH]c2ccccc12 [Indole-3-carbinol]	-1.28
Cc1cc(=O)oc2cc(O)ccc12 [4-Methylumbelliferone (4-MU)]	-0.429
CC1(C)CCC(C)(C)c2cc(NC(=O)c3ccc(C(=O)O)cc3)ccc21 [Tamibarotene]	-0.318
CCCCCOc1ccc(-c2ccc(-c3ccc(C(=O)N[C@H]4C[C@@H](O)[C@@H](O)NC(=O)[C@@H]5[C@@H](O)[C@@H](C)CN5C(=O)[C@H]([C@@H](C)O)NC(=O)[C@H]([C@H](O)[C@@H](O)c5ccc(O)cc5)NC(=O)[C@@H]5C[C@@H](O)CN5C(=O)[C@H]([C@@H](C)O)NC4=O)cc3)cc2)cc1 ({pTerphenylCO(4''-OnC5H11)}-[Orn(4R-OH,5R-OH)]T[Hyp][hTyr(3S-OH,4S-OH)]T[Pro(3S-OH,4S-Me)]; lactam 1-C)	-1.53
O=C(Nc1ccccc1)OCC(CN1CCCCC1)OC(=O)Nc1ccccc1 (configuration not stated) [Diperodon HCl]	-0.0582
CC(C)c1cc(C(C)C)c(CC(=O)NS(=O)(=O)Oc2c(C(C)C)cccc2C(C)C)c(C(C)C)c1 [Avasimibe]	0.505
OC(CCN1CCCCC1)(c1ccccc1)C1CCCCC1 (configuration not stated) [Trihexyphenidyl hydrochloride]	0.718
O=C(Nc1cc(Cl)cc2c1[nH]c1cnccc12)c1cccnc1	-0.243
CN1C(=O)[C@@H](NC(=O)c2cc(Cc3ccccc3)on2)COc2ccccc21	-0.308
CC(=O)O[C@H]1C[C@@]2(C)[C@@H](C[C@@H](O)[C@H]3[C@@]4(C)CC[C@@H](O)[C@@H](C)[C@@H]4CC[C@@]32C)/C1=C(\CCC=C(C)C)C(=O)O [Fusidate Sodium]	8.18e-05
C=CC(=O)N1C/C(=C\c2ccc([N+](=O)[O-])cc2)C(=O)/C(=C/c2ccc([N+](=O)[O-])cc2)C1	-2.29
Nc1cc(C(Cl)=C(Cl)Cl)c(S(N)(=O)=O)cc1S(N)(=O)=O [Clorsulon]	-1.53
Cc1cnc(Nc2ccc(OCCN3CCCC3)cc2)nc1Nc1cccc(S(=O)(=O)NC(C)(C)C)c1	-3.69
Cc1[nH]c(/C=C2\C(=O)Nc3ccccc32)c(C)c1CCC(=O)O [TSU-68 (SU6668_ Orantinib)]	0.315
CN(C)CCOC(C)(c1ccccc1)c1ccccn1 (configuration not stated) [Doxylamine Succinate]	-0.0261
COc1ccccc1OCCNCC(O)COc1cccc2[nH]c3ccccc3c12 (configuration not stated) [Carvedilol]	-1.16
CN1CCC(OC(c2ccccc2)c2ccccc2)CC1 [Diphenylpyraline HCl]	0.136
CC1=C(C(=O)OC(C)C)C(c2cccc([N+](=O)[O-])c2)C(C(=O)OC2CN(C(c3ccccc3)c3ccccc3)C2)=C(N)N1 (configuration not stated) [Azelnidipine]	-0.0945

Two entries drawn at random from those above, as already listed:
SMILES	nucleus roundness z-score
Cc1cc(=O)oc2cc(O)ccc12 [4-Methylumbelliferone (4-MU)]	-0.429
Cc1[nH]c(/C=C2\C(=O)Nc3ccccc32)c(C)c1CCC(=O)O [TSU-68 (SU6668_ Orantinib)]	0.315
